According to patent publication US12365709B2 (INSTITUT NATIONAL UNI[…]-FRANCOIS CHAMPOLLION, priority 2017, dated 2025):

Assay: general procedure: Fmoc solid-phase peptide synthesis
Conditions: whole synthesis

Sequence: LFKEILEKIKAKL [P17]
- purity (crude or final not stated): greater than 99%
